Results are given in words; binding and its absence hold for the method and conditions named. A result given as binding can be weak or reduced; the word gives no strength.
What was measured:
[1] = molecular target: cynomolgus monkey SEMA4D (cellular target on lysed whole blood cells) (cynomolgus monkey); assay: flow cytometry-based saturation assay on lysed whole blood of cynomolgus monkeys after a single intravenous injection of MAb 2503
[2] = molecular target: CD100 (species not stated); assay: antibody cross-blocking ELISA

Binder | binding [1] | binding [2]
MAb 2503 (antibody, V domains shown, also called humanized MAb 67; H2160/L553) VH: QVQLVQSGAEVKKPGSSVKVSCKASGYSFSDYYMHWVRQAPGQGLEWMGQINPTTGGASYNQKFKGKATITVDKSTSTAYMELSSLRSEDTAVYYCARYYYGRHFDVWGQGTTVTVSS VL: DIVMTQSPDSLAVSLGERATINCKASQSVDYDGDSYMNWYQQKPGQPPKLLIYAASNLESGVPDRFSGSGSGTDFTLTISSLQAEDVAVYYCQQSNEDPYTFGQGTKLEIK | binds | –
MAb 76 (antibody, IgG2b, V domains shown, also called clone 76-1; 76-1) VH: QVQLQQSGAELAKPGASVKMSCKASGYTFTRYWMHWVKQRPGQGLEWIGYINPSTGYSDYNQKFKDKATLTADKSSSTAYMQLSSLTSEDSAVYYCARDPYGWTMDSWGQGTLVTVSS VL: DIQMTQSPSSLSASLGDTITITCHASQNINVWLSWYQQKPGNIPKLLIYKASNLHTGVPSRFSGSGSGTGFTLTISSLQPEDIATYYCQQGQSYPYTFGGGTKLEIK | – | binds

— patent US20170306017A1 (VACCINEX, published 2017)
